# According to the supplement of paper PMC11348887:
# Counter-ions that a name gives are not always drawn. The list shows a part of the results. Most values lie at the level of the controls, where differences are scatter.
# Tested on: hPSC-derived cortical neurons (WA09)
# Assay: nucleus area z-score vs screen plate; higher = larger nuclei (more mature)
# Conditions: 5 µM; treatment: days 7-14 after plating, readout day 21
row,SMILES,nucleus area z-score
1,CCOc1nc2cccc(C(=O)OCc3oc(=O)oc3C)c2n1Cc1ccc(-c2ccccc2-c2noc(=O)[nH]2)cc1 [Azilsartan Medoxomil],0.493
2,CNC[C@H](O)c1ccc(O)c(O)c1 [Epinephrine Bitartrate],1.66
3,O=P(O)(O)C(Cl)(Cl)P(=O)(O)O [Clodronate Disodium],1.46

# Tested on: hPSC-derived cortical neurons (WA09)
# Assay: total neurite length per nucleus (MAP2) z-score; higher = more neurite growth
# Conditions: 5 µM; treatment: days 7-14 after plating, readout day 21
row,SMILES,total neurite length per nucleus (z-score)
1,COc1cc2nc(N3CCCC3)nc(NCCCCCN3CCCC3)c2cc1OC,-3.53
2,CCOC(=O)c1ccc(N2NC(=O)C(=Cc3ccc([N+](=O)[O-])o3)C2=O)cc1,1.23
3,Cc1ccc(NC(=O)Nc2cc(C(F)(F)F)ccc2F)cc1Nc1ccc2c(c1)NC(=O)/C2=C\c1ccc[nH]1,-4.46
4,Cc1c(Nc2ncccc2C(=O)O)cccc1C(F)(F)F [Flunixin Meglumin],0.00361
5,C[C@@H]1CC(=O)NN=C1c1ccc(NN=C(C#N)C#N)cc1 [Levosimendan],1.21
6,CN(C)CC/C=C1/c2ccccc2Sc2ccc(Cl)cc21 [Chlorprothixene],-0.247
7,COC(=O)c1ccc2c(c1)[nH]c1ncnc(NCCCN3CCCCC3)c12,1.37
8,CCC(=O)c1c(O)cc(O)cc1O [Flopropione],0.311
9,CC(C)(CO)C(O)C(=O)NCCC(=O)O [Calcium D-Panthotenate],0.291
10,CCOC(=O)[C@H](CCc1ccccc1)N[C@H]1CCCN2CCC[C@@H](C(=O)O)N2C1=O [Cilazapril Monohydrate],0.0463
11,O=C(CSc1nc2c(c(=O)n1-c1ccccc1)SCC2)Nc1ccc(-c2ccccc2)cn1,0.822
12,CCCOc1ccn2c(C(C)=O)cc(-c3ccccc3S(C)(=O)=O)c2c1,-0.00448
13,O=C1N=C(O)NC1(c1ccccc1)c1ccccc1 [Phenytoin sodium],-0.0247
14,CC(C)(O/N=C(\C(=O)N[C@@H]1C(=O)N2C(C(=O)[O-])=C(C[n+]3ccccc3)CS[C@H]12)c1csc(N)n1)C(=O)O [Ceftazidime Pentahydrate],0.364
15,C[C@]12CCC3=C4CCC(=O)C=C4CC[C@H]3[C@@H]1CC[C@@]2(O)CC#N [Dienogest],0.331
16,[I-].[K+] [Potassium Iodide],0.000459
17,COc1ccc(-c2cc(=O)c3c(O)cc(O[C@@H]4O[C@H](CO[C@@H]5O[C@@H](C)[C@H](O)[C@@H](O)[C@H]5O)[C@@H](O)[C@H](O)[C@H]4O)cc3o2)cc1O [Diosmin],-1.43

# Copied from the list.
# total neurite length per nucleus (z-score) with COc1cc2nc(N3CCCC3)nc(NCCCCCN3CCCC3)c2cc1OC reads -3.53
# total neurite length per nucleus (z-score) with O=C(CSc1nc2c(c(=O)n1-c1ccccc1)SCC2)Nc1ccc(-c2ccccc2)cn1 reads 0.822
# total neurite length per nucleus (z-score) with CCOC(=O)c1ccc(N2NC(=O)C(=Cc3ccc([N+](=O)[O-])o3)C2=O)cc1 reads 1.23

# Additional compounds follow.

row,SMILES,total neurite length per nucleus (z-score)
1,CCN(CC)CC(=O)Nc1c(C)cccc1C [Lidocaine hydrochloride],0.553
2,O=C(O)c1ccc(C=C2SC(=S)N(c3cccc(C(F)(F)F)c3)C2=O)cc1,0.793
3,CCN(CC)CCNC(C(=O)OCCC(C)C)c1ccccc1 (configuration not stated) [Camylofin Chlorhydrate],-0.317
4,CN(CCOc1ccc(NS(C)(=O)=O)cc1)CCc1ccc(NS(C)(=O)=O)cc1 [Dofetilide],-0.239
5,NNc1nncc2ccccc12 [Hydralazine HCl],-0.842
6,COc1cccc(C=NCCN=Cc2cccc(OC)c2[O-])c1[O-].[Cl-].[Mn+3],0.483
7,NCC[C@H](O)C(=O)N[C@@H]1C[C@H](N)[C@@H](O[C@H]2O[C@H](CN)[C@@H](O)[C@H](O)[C@H]2O)[C@H](O)[C@H]1O[C@H]1O[C@H](CO)[C@@H](O)[C@H](N)[C@H]1O [Amikacin disulfate],0.646
8,Cc1ncc([N+](=O)[O-])n1CC(C)O (configuration not stated) [Secnidazole],-0.0605
9,COc1ccc(C(C)=O)c(O)c1 [Paeonol],0.181
10,Cc1cc(O)c2c(c1)C(=O)c1cc(O)cc(O)c1C2=O [Emodin],-0.595
11,CC1CCN(CC[C@H]2CCCN2S(=O)(=O)c2cccc(O)c2)CC1,-0.556
12,Nc1nc(F)nc2c1ncn2[C@@H]1O[C@H](CO)[C@@H](O)[C@@H]1O [Fludarabine],2.37
13,CCCCNc1ncc2c(-c3ccc(CN4CCN(C)CC4)cc3)cn([C@H]3CC[C@H](O)CC3)c2n1,-3.5
14,NS(=O)(=O)c1cc2c(cc1Cl)NCNS2(=O)=O [Hydrochlorothiazide],-0.372
15,CN1CCN(c2c(F)cc3c(=O)c(C(=O)O)cn4c3c2OCN4C)CC1 [Marbofloxacin],-1.05
16,CS(=O)(=O)c1ccc(-c2nnc(/C=C/c3nnc(-c4ccc(C#N)cc4)o3)n2-c2ccccc2Cl)nc1,-0.622
17,CCCCC[C@H](O)/C=C/[C@H]1[C@H](O)CC(=O)[C@@H]1CCCCCCC(=O)O [Alprostadil],-0.345
